Article PMC7819943, “Rice protein-binding microarrays: a tool to detect cis-acting elements near promoter regions in rice”
This is one part of the list.

By UniProt entry, the sequences of proteins in these tests, tags left out.
UniProt Q0JBA9, entry or part of it: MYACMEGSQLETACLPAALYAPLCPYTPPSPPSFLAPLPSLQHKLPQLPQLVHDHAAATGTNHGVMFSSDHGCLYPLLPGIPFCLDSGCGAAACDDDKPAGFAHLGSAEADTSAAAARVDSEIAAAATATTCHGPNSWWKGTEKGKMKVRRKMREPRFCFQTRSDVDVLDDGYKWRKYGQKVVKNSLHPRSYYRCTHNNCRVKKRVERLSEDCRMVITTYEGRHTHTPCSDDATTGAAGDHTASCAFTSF

Target: OsWRKY34 (Oryza sativa, UniProt Q0JBA9 1-250)
Assay: protein-binding microarray (RPBM); PBS, 2% BSA, 51.3 ng/ul salmon testes DNA, 50 uM zinc acetate, 200 nM TF, 25 C, 1 h; high values mean tight binding
Conditions: protein: recombinant; tags: N-terminal polyhistidine and DsRed monomer fusion (pET32a); label: CyDye5-dUTP incorporated in the synthesized complementary strand; 3' TTTTT single-stranded linker to array surface; dsDNA, one strand shown
Method in brief: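 In PBS with 2% BSA, salmon testes DNA and 50 µM zinc acetate, 200 nM protein was incubated on a custom Agilent array at 25 °C for 1 h and then washed off. The array had been made double-stranded by primer extension with Cy5-dUTP and blocked with 2% BSA. The proteins were transcription factors fused N-terminally to polyhistidine and DsRed, expressed in E. coli BL21-CodonPlus and purified on Ni–NTA. The binding signal is per-feature fluorescence intensity (arbitrary units) from an Axon 4000B scanner.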

Compared with “CGCTCGTCCGCTCCACTCCACCACCAGAAGTACCACCTCCCGGAGTCACCTAGTGCAG”, “ATCTTATATTCAGGTACATATTAAAATATTTTCCCATCAGCGGAGTCACCTAGTGCAG” is lower in binding signal: 9360 fluorescence intensity (a.u.) for the first, 8230 fluorescence intensity (a.u.) for the second.

Compared with “CGCCGCCTCCGCCTCCGCTTCCGCTCGCCCGGACCCGCCTCGGAGTCACCTAGTGCAG”, “TTTTTTTTCTTTTTTTTTTGTCGGTGCGGCTTTTTCTTTCCGGAGTCACCTAGTGCAG” is lower in binding signal: 11100 fluorescence intensity (a.u.) for the first, 9000 fluorescence intensity (a.u.) for the second.

Compared with “AGAAACAACTAACCGCTTATTCTACTACAGATTATAACAACGGAGTCACCTAGTGCAG”, “TCATTTGAGTTGTTCTTTCTCACACCCAATTCTTACATTTCGGAGTCACCTAGTGCAG” is higher in binding signal: 8980 fluorescence intensity (a.u.) for the first, 9450 fluorescence intensity (a.u.) for the second.

Going from “AGCAGCACCATTATTCCTGCTGGCTAGTGTGTCCATTTGACGGAGTCACCTAGTGCAG” to “CCCTGGAGTTTTCTCTCTCCTGCCGGTGCTCCCAACTCTTCGGAGTCACCTAGTGCAG”, the binding signal falls from 8840 fluorescence intensity (a.u.) to 8140 fluorescence intensity (a.u.).

Going from “TCGCCGCAAAAACCACGCCGCCATCACAGCATTCGTGCATCGGAGTCACCTAGTGCAG” to “GCACACGTCGTTCGGTTCCTCTCCACTCCAACTCCACCGTCGGAGTCACCTAGTGCAG”, the binding signal rises from 8140 fluorescence intensity (a.u.) to 8160 fluorescence intensity (a.u.).

First: ATATTTCAAGTTTGTAATCATATGCTAACGGTTCATCTCACGGAGTCACCTAGTGCAG
Second: CCATGTCCTGCTCTGCCTCTCCATTCACATCTCCAGCACACGGAGTCACCTAGTGCAG
The binding signal of the first is lower: 8910 fluorescence intensity (a.u.) for the first, 9620 fluorescence intensity (a.u.) for the second.

First: GCACCATCACATAGCAAACCATAATCACCTACATTTTTCACGGAGTCACCTAGTGCAG
Second: TTCTAACCCCAGTAACCGAACACAGCCTTAGTTTTTATTGCGGAGTCACCTAGTGCAG
The binding signal of the first is higher: 8550 fluorescence intensity (a.u.) for the first, 8350 fluorescence intensity (a.u.) for the second.

Going from “GGTGTGCGGCTTCCAGTATCCTTGAACAATTCAGGTTTTCCGGAGTCACCTAGTGCAG” to “CTCCACCAGCCGTTATTCTTTTGTTTCGTCCTCACTCATCCGGAGTCACCTAGTGCAG”, the binding signal falls from 9370 fluorescence intensity (a.u.) to 8140 fluorescence intensity (a.u.).

Compared with “AATATGGTGTCGTTCACTTTTTTTACGTATATTTCATCATCGGAGTCACCTAGTGCAG”, “TCCCTACCAGAAGACATGTCAGCCTCTACGCAACCATTACCGGAGTCACCTAGTGCAG” is lower in binding signal: 8510 fluorescence intensity (a.u.) for the first, 8190 fluorescence intensity (a.u.) for the second.

Compared with “TTCATACCACCTTACATTTTACGTTTGAATCACCATTCTACGGAGTCACCTAGTGCAG”, “TCTTGCTTATATTCTCTTAAACAGGTATACCCACTGTTTTCGGAGTCACCTAGTGCAG” is higher in binding signal: 8740 fluorescence intensity (a.u.) for the first, 10100 fluorescence intensity (a.u.) for the second.

Going from “TCCTTGTCTTCTCCATCGTTGATCTTCTCGCAGCAGTTTCCGGAGTCACCTAGTGCAG” to “TCATGCTCACGTTTGGTGGTGGTTGCTGTTCGATCGTCCACGGAGTCACCTAGTGCAG”, the binding signal rises from 9820 fluorescence intensity (a.u.) to 10200 fluorescence intensity (a.u.).

First: GGTTTTGTCCACTACCCCACCTTTCTCTCCGCAAGAATCACGGAGTCACCTAGTGCAG
Second: CTCCTCCACTCCTTCGCCAACGACCTCATCTGCCGCGCCGCGGAGTCACCTAGTGCAG
The binding signal of the first is lower: 8640 fluorescence intensity (a.u.) for the first, 10200 fluorescence intensity (a.u.) for the second.

First: TACACTGGGTTGGCGAGCGGGGTGGGCCTGGGCCTCGAGGCGGAGTCACCTAGTGCAG
Second: CAAGAAGCATGTTCCTCGGTATTTCTCGCTACATCTTATCCGGAGTCACCTAGTGCAG
The binding signal of the first is higher: 12700 fluorescence intensity (a.u.) for the first, 10700 fluorescence intensity (a.u.) for the second.

Going from “TTGGTTAGCTACAGTTTCAGTTCGGGGAATCGCCCTATACCGGAGTCACCTAGTGCAG” to “AGCCTTCGTTGGTATTGATATGTTTGTGTTATCTTATGTACGGAGTCACCTAGTGCAG”, the binding signal falls from 8100 fluorescence intensity (a.u.) to 8040 fluorescence intensity (a.u.).

Compared with “ATTTGTATTTCTATCAGAATTCTTTATTCCTTCGTTTTTTCGGAGTCACCTAGTGCAG”, “GATCGCTTCACTTTCCACCAAGACTTCACCTGACCTTGCCCGGAGTCACCTAGTGCAG” is higher in binding signal: 8840 fluorescence intensity (a.u.) for the first, 9340 fluorescence intensity (a.u.) for the second.

Going from “ATCCATCATAATTCTTTGCATTATCTTTCTTTGAACACACCGGAGTCACCTAGTGCAG” to “TCCGTGTCCAACGTTTGACTTCCCGTCTTATATAATTTTTCGGAGTCACCTAGTGCAG”, the binding signal rises from 9090 fluorescence intensity (a.u.) to 9380 fluorescence intensity (a.u.).

Compared with “CACTCACTCGCTGCCTGCTCAAACACACACACGGCACTCCCGGAGTCACCTAGTGCAG”, “GTCTCCCGTGCTTCACTTGTAGCTATCTACTCCATCTATCCGGAGTCACCTAGTGCAG” is lower in binding signal: 9730 fluorescence intensity (a.u.) for the first, 8380 fluorescence intensity (a.u.) for the second.

Going from “CTAGTGAGGGGCGGGCGGGCGGGCAAGGGGAGCGGATGGGCGGAGTCACCTAGTGCAG” to “CAATTTTCTTTCCATCTCCGTCATTGCACCTCTCATTTAACGGAGTCACCTAGTGCAG”, the binding signal falls from 19100 fluorescence intensity (a.u.) to 13000 fluorescence intensity (a.u.).

Compared with “AACCCGTCTCCGCTTGATCAGGTGCGTCACCCGTGGCGCCCGGAGTCACCTAGTGCAG”, “ACCCACCTGCATCCACCCCTATCCTCGCGCACGCCGGTCGCGGAGTCACCTAGTGCAG” is lower in binding signal: 9490 fluorescence intensity (a.u.) for the first, 8680 fluorescence intensity (a.u.) for the second.

Going from “TATTAACATTCTAGTTACTAGCTCTACGTGCATGCACATACGGAGTCACCTAGTGCAG” to “AGCCCACCACCGACGCCCTCGTTGACATGAAGTTTTATTCCGGAGTCACCTAGTGCAG”, the binding signal rises from 8090 fluorescence intensity (a.u.) to 8850 fluorescence intensity (a.u.).

Compared with “GCACCAACCATCTCACCCGTCCGACGTGGCAGCAGCAACCCGGAGTCACCTAGTGCAG”, “AGCCTAGATTATCTCCAGTCTCCTCGGCCAATTCCCGACTCGGAGTCACCTAGTGCAG” is lower in binding signal: 8770 fluorescence intensity (a.u.) for the first, 8280 fluorescence intensity (a.u.) for the second.
